We go through one substance from paper doi:10.1101/2020.05.03.074682.

Sequences of proteins named here, by UniProt entry; tags and fusion partners are left off.
UniProt Q9BQQ3: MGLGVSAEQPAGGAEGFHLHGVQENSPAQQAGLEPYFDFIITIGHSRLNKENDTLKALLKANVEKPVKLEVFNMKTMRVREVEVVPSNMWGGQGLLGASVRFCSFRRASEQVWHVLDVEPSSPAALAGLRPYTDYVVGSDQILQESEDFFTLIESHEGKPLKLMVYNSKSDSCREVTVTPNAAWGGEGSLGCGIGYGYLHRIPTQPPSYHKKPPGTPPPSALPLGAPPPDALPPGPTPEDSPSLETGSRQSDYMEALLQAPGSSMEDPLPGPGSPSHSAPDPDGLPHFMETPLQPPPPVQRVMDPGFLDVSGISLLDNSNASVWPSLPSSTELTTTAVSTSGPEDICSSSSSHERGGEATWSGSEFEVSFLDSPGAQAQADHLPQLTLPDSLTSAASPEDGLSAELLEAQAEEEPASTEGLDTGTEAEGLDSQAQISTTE

The test has as its target T1, HA-tagged GlcCer synthase (GCS) (UniProt Q16739).
T1 sequence: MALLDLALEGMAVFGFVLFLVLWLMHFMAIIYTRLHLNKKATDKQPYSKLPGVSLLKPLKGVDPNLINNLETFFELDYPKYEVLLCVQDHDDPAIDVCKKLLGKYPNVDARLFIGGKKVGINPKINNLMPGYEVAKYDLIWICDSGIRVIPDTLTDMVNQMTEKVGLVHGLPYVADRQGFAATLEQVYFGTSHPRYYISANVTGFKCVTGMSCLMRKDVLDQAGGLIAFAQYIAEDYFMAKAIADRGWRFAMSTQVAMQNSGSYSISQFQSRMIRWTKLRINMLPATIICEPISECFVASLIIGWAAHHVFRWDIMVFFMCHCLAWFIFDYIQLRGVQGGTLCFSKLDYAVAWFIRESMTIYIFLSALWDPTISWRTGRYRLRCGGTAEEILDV
Nature of the test: co-IP.

Results are given in words; binding and its absence hold for the method and conditions named. Binding seen in cells or lysates may run through a third protein. Where a sequence is shown, tags or fusion partners need not be part of it.

Turning to GRASP65 (from UniProt Q9BQQ3 1-440), the binding entry is recorded as “no binding”.
